These are yes or no findings as the source states them, for the method shown. Binding seen in cells or lysates may run through a third protein. Some binding calls cover weakened binding; strength is not graded here.
Key:
Flag-tagged SRSF10 (WT) = Flag-tagged SRSF10 (WT) (UniProt O75494); experiment: co-IP; HEK293T cotransfected with Flag-SRSF10 and CK1ε-GFP; immunoprecipitated with anti-Flag beads; Western blot
V5-tagged CK1ε = V5-tagged CK1ε (UniProt P49674); experiment: co-IP; HEK293T cotransfected with CK1ε-V5 and Flag-tagged WT or point-mutated SRSF10 (Fig. 8F); beads not stated
[1] = molecular target: Flag-tagged kinase-dead mutant CK1ε-K38R (UniProt P49674); experiment: co-IP; HEK293T transfected with Flag-CK1ε, Flag-CK1ε-K38R or control vector; immunoprecipitated with anti-Flag beads; endogenous SRSF10 detected
Flag-tagged CK1ε (WT) = Flag-tagged CK1ε (WT) (UniProt P49674); experiment: as above
[2] = molecular target: serine/arginine-rich splicing factor 10 (SRSF10), endogenous in A549 cells (human (endogenous in A549)) (UniProt O75494); experiment: co-IP; A549 cell lysates immunoprecipitated with anti-SRSF10 antibody or IgG; endogenous CK1ε and CK1δ detected by Western blot

The chains behind the UniProt entries cited, without tags or fusion partners. Where a name states a change or a piece, a line headed by the entry shows the natural chain unless it says otherwise.
UniProt O75494: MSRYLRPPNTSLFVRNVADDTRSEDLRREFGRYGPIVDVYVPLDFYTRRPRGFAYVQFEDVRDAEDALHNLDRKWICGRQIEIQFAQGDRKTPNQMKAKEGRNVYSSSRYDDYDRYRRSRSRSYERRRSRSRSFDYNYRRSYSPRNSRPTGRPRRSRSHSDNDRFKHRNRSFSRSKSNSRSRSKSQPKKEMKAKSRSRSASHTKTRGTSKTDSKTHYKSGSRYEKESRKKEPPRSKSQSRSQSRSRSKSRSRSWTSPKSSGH
UniProt P49674: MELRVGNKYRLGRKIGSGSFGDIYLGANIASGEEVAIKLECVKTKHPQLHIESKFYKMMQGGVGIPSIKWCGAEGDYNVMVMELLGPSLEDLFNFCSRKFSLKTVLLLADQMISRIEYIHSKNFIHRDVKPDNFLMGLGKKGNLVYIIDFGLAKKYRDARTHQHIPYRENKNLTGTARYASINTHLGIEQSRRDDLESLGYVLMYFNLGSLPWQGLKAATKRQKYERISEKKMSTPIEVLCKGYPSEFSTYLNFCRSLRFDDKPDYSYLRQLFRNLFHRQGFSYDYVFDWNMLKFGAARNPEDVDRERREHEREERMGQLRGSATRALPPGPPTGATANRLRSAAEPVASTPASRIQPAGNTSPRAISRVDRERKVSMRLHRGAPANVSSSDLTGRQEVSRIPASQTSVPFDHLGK

| binding (V5-tagged CK1ε) | Substance | also measured |
| --- | --- | --- |
|  | GFP-tagged CK1ε (from UniProt P49674 1-416) (enzyme) | binding (Flag-tagged SRSF10 (WT)): binds |
| binds | Flag-tagged SRSF10 (WT) (from UniProt O75494 1-262) |  |
|  | serine/arginine-rich splicing factor 10 (SRSF10), endogenous in HEK293T cells (from UniProt O75494 1-262) | binding [1]: no binding; binding (Flag-tagged CK1ε (WT)): binds |
| binds | SRSF10-S133A-Flag (from UniProt O75494 1-262) |  |
|  | casein kinase 1ε (CK1ε), endogenous in A549 cells (from UniProt P49674 1-416) (enzyme) | binding [2]: binds |
| binds | SRSF10-S23A/S133A-Flag (from UniProt O75494 1-262) |  |
| binds | SRSF10-S23A-Flag (from UniProt O75494 1-262) |  |
